## Primary screen of a compound library

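Viability assay of Plasmodium falciparum sporozoites; the read-out is not stated. The concentration is filed as 10 mM, unlikely as a test dose, so the dose is not known. Direction is inferred from retests: higher values go with lower viability. Strong results were mostly tested again. About 34,000 compounds were tested under these conditions; 0.84% (about 280) showed 50% or more at least once.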

Results are given as percent effect. The record does not define 0% and 100%; most values in the screen are far below 50% and negative numbers occur (in some assays of this library far below -100). Compounds were drawn at random from those tested, without regard to their results. Two or more numbers in one place are separate tests of the same structure; such repeats can differ widely.

compound	percent effect
CCn1nc2c(cc1=O)CN(Cc1nc(CCOC)no1)CC2	-1.61
COCCn1cnc2ccc(NC(=O)C3CC3)cc2c1=O	-1.007
Cc1nc(CN2CCCN(C(=O)COCC3CC3)CC2)cs1	-5.005
CN(CC1(CO)CCOCC1)[C@@H]1c2ccccc2C2(CCNCC2)[C@H]1O	-5.644
CC(C)(C)OC(=O)N1CCCCC(NC(=O)CCc2cccnc2)C1 (configuration not stated)	8.102
CCn1ncc2c1CCCC2NCc1ccc(OC)c(C)c1 (configuration not stated)	1.069
Cc1n[nH]c(C)c1NC(=O)CN1CCOC(Cn2cccn2)C1 (configuration not stated)	-13.18
CC(=O)N1CCC(c2cccc(NC3CCOCC3)n2)CC1	1.384
COCCN(C)C(=O)c1nc2c(s1)CCCN2c1ccc(C)nn1	-7.277
Cc1cc(CN(C)Cc2ccccc2N2CCCCC2)n[nH]1	8.679
CC1(C)CCN1C(=O)c1cc(F)cc2[nH]cnc12	5.037
CN(C)S(=O)(=O)N1CCCC(c2cccc(Cc3ccc(Cl)cc3)n2)C1 (configuration not stated)	1.172
CCN(CC)C1CCN(c2nccc(C3CCCC3)n2)C1 (configuration not stated)	-0.1776
O=C1CC2(CCN(C(=O)c3csc(-c4ccccc4)n3)C2)C(=O)N1 (configuration not stated)	-11.18
Cn1ccnc1CN1CCN(Cc2noc(C3CC3)n2)CC1	10.42
O=C(Nc1ccc(F)cc1F)Nc1c[nH]c(=O)[nH]c1=O	2.346
CCc1nnc2n1CCN(C(=O)c1cc3ccc(F)cc3nc1C)C2	3.271
Cc1ccc(CN(C)Cc2nc3c(cnn3C)c(=O)[nH]2)c(C)c1	3.94
[H][C@@]12CN(C(C)=O)CCO[C@]1([H])CN(S(=O)(=O)C1CC1)C2	-2.026
Cc1c(C(=O)O)cnn1-c1ccc(-c2nc(C(C)(C)C)no2)cn1	-18.82 and -37.79
Cn1cc(NC(=O)C2CC(c3ccccc3)C2)ccc1=O (configuration not stated)	7.587
CCc1noc(CSc2n[nH]c(-c3ccccn3)n2)n1	-0.7684
CCc1nc(C2CCCN(C(=O)c3ccccc3F)C2)no1 (configuration not stated)	-4.916 and -11.6 and 6.946
COC1CC2(CCN(Cc3ccc4c(c3)OCO4)CC2)C1	9.171
CS(=O)(=O)N1CCCC12CCCN(S(=O)(=O)c1cccc(F)c1)C2 (configuration not stated)	26.23
COc1ccc(C(C)(C)C)cc1CN1CCn2c(CO)nnc2C1.O=C(O)CC(O)(CC(=O)O)C(=O)O	0.2185
CN(C)c1ncccc1CNC(=O)N1CCCC1CN1CCCCC1 (configuration not stated)	1.799
N#Cc1ccc(CNC(=O)NC2CCN(CC(F)F)CC2)cc1	-20.99
Cc1nonc1C1CCCN1CCC(=O)N1CCc2ccccc2C1 (configuration not stated)	11.01
N#CCCN(CC1CCCO1)C(=O)c1ccsc1 (configuration not stated)	-7.53
Cc1occc1C(=O)N1CCC[C@]2(C[C@@H](OCc3ccncc3)CO2)C1.O=C(O)C(F)(F)F	7.684
COc1ccc(NC(=O)Cn2nc(C)c(C)cc2=O)c(OC)c1	-4.474
Cn1nc(CNC(=O)C2COc3ccccc3O2)cc1C1CC1 (configuration not stated)	-13.3
CCOc1ccc(C(=O)N(Cc2cnn(C)c2)C(C)C)cc1OCC	9.634
Cc1cnn(CC2CCCCN2C(=O)c2cccc3c2OCO3)c1 (configuration not stated)	6.02
O=C(CCCc1ccccn1)N1CCCC1c1noc(C2CC2)n1 (configuration not stated)	4.182
COc1ccc(C2SC(C)=Nc3c2c(=O)[nH]n3C2CCCCC2)cc1O (configuration not stated)	-5.482
Cn1ccc(C(=O)N2CCC(Cc3cnc4[nH]ccc4c3)CC2)n1	-1.54
Cc1nc(N2CCCCC2)ncc1-c1cc(O)[nH]n1	-12.06
Cn1cc(CNC2CCc3c(ccc(=O)n3Cc3ccncc3)C2)cn1.O=C(O)C(F)(F)F.O=C(O)C(F)(F)F (configuration not stated)	8.27
Cc1cccc(NS(=O)(=O)c2cc(C(=O)O)oc2C)c1Cl	-3.107
O=C(O)C(F)(F)F.[H][C@@]12CCN(c3ccc(C)nn3)C[C@]1([H])O[C@H](C(=O)N1CCOCC1)C2	3.429
COc1ccc(C(O)CNC(=O)Nc2cc(C)nn2C)cc1 (configuration not stated)	-5.441
CCOCCCNC(=O)C1(C)CCC(=O)N1c1cc(OC)ccc1OC (configuration not stated)	4.566
Cc1cnc2cc(C3CCN(C(=O)c4ccncc4)CC3)[nH]c2n1	3.646
CC(=O)NC1CCCc2c1[nH]c1ccc(F)cc21 (configuration not stated)	-7.784
CN(CCc1ccccc1)c1cnn(CC(=O)N2CCSCC2)c(=O)c1	-1.771
CCc1nnc2n1CCN(Cc1ccc3c(c1)OCCO3)C2	-117.7
Cc1ccc(CN2CCC3(CCN(c4cnn(C)c4)C3=O)C2)s1.O=C(O)C(F)(F)F (configuration not stated)	-11.77
COc1ccc(CC2CN(Cc3cncn3C)CCO2)cc1 (configuration not stated)	8.589
Cc1nc(C)n(C2CCCN(C(=O)CCc3ccncc3)C2)n1 (configuration not stated)	-3.157
CNC(=O)COc1ccccc1CNC1CCc2ncnn2C1 (configuration not stated)	8.535
CN1CCC2(CCN(C(=O)c3ccccc3)CC2)C1	15.23
COc1ccc(C(=O)NCCc2nnc3ccccn23)c(OC)c1	22.66
O=C(O)C(F)(F)F.[H][C@@]12CN(C(=O)c3ccc(C)nc3)C[C@]1([H])OCCN2C	3.522
CNC(=O)c1cccc(C2CNCCN2C(=O)c2ccn(C)n2)c1 (configuration not stated)	4.464
CN(Cc1nc2c(cnn2C)c(=O)[nH]1)Cc1ccc(F)cc1F	7.568
CCNC(c1ccc(OC)cc1)c1cccnc1 (configuration not stated)	-1.193
CCOc1ccccc1N1CCN(C(=O)c2cc[nH]n2)CC1	7.843
CCc1cc(C(=O)N2CCCC(c3cc(=O)nc4n3CCC4)C2)no1 (configuration not stated)	3.297
Cc1nn(C)cc1-c1cc(C(F)(F)F)c2c(C)nn(CC(=O)O)c2n1	3.769
O=C(c1c[nH]nn1)N1CCCC1C1CCCCC1 (configuration not stated)	-8.07
CC(c1cc(F)ccc1F)N1CCN(Cc2nccn2C)CC1 (configuration not stated)	-7.978

Once more, the final 7:

| compound | percent effect |
|---|---|
| `CN(Cc1nc2c(cnn2C)c(=O)[nH]1)Cc1ccc(F)cc1F` | 7.568 |
| `CCNC(c1ccc(OC)cc1)c1cccnc1` (configuration not stated) | -1.193 |
| `CCOc1ccccc1N1CCN(C(=O)c2cc[nH]n2)CC1` | 7.843 |
| `CCc1cc(C(=O)N2CCCC(c3cc(=O)nc4n3CCC4)C2)no1` (configuration not stated) | 3.297 |
| `Cc1nn(C)cc1-c1cc(C(F)(F)F)c2c(C)nn(CC(=O)O)c2n1` | 3.769 |
| `O=C(c1c[nH]nn1)N1CCCC1C1CCCCC1` (configuration not stated) | -8.07 |
| `CC(c1cc(F)ccc1F)N1CCN(Cc2nccn2C)CC1` (configuration not stated) | -7.978 |

Data taken from ChEMBL document CHEMBL3988442, “University of Dundee, Small-Polar-MMV Screening Library” (2021).